# Results reported in PubChem BioAssay AID2685 (National Center for Advancing Translational Sciences (NCATS), 2010).
# Where “and” joins values, the source holds several entries; their conditions need not be identical. Equal entries are not always repeated. The list shows a part of the results. Shown are side measurements of this screen, not its main read-out; they come without a call. Most of these compounds were active or inconclusive in the main read-out, so they are no random draw. The note in brackets gives the kind of curve behind each potency; many fits are weak.
# Test: qHTS Assay for Lipid Storage Modulators in Drosophila S3 Cells;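 for cell number change: cells counted by Cell Tracker Red CMTPX staining in the red channel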
# Settings: BODIPY lipid droplet fluorescence, 18-24 h; for cell number change: measured here: cell count max response, cells fed with added oleic acid
# In short: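 Drosophila S3 cells loaded with oleic acid (400 uM, as added) and compounds at several concentrations; lipid droplets imaged by 488-nm laser-scanning cytometry, 500–530 nm intensity and object ratio to cell channel. Percent activity normalized to 20 uM Triacsin C.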
# [1] = measured here: lipid fluorescence (Fed channel) AC50, cells fed with added oleic acid
# [2] = measured here: cell number channel AC50, cells fed with added oleic acid
SMILES,cell number change,AC50 [1],AC50 [2]
CCCNC(=O)COC(=O)c1cc2c(=O)n3ccccc3nc2s1,8.39%,"9.2 µM [rising, partial curve]",
CCn1c(SCC(=O)Nc2ccc(OC)cc2)nc2c1c(=O)n(C)c(=O)n2C,17.9%,,
CCOP(=O)(OCC)C(Nc1cccc([N+](=O)[O-])c1)c1ccc(OC)cc1 (stereo not drawn),-19.9%,,
NC(=O)c1cc([N+](=O)[O-])ccc1NCc1ccccn1,29.6%,"23.1 µM [rising, partial curve, poor fit]","0.326 µM [rising, full curve, poor fit]"
COc1ccc(Cl)cc1-c1nc(SCC(=O)NC2CCS(=O)(=O)C2)n[nH]1 (stereo not drawn),20.4%,,
N#C/C=C/N1CCC(Cc2ccccc2)CC1,-5.26%,,
Cc1ccnc(NC(=O)C2CCCN(S(=O)(=O)c3ccc4[nH]c(=O)ccc4c3)C2)c1 (stereo not drawn),-12.2%,"14.6 µM [falling, partial curve]",
CCCNc1c(N)c(=O)c1=O,-26.1%,"5.17 µM [falling, full curve]",
Oc1ccccc1C1=NN(c2ccccc2)C(c2ccc(F)cc2)C1 (stereo not drawn),-22.7%,"0.58 µM [falling, partial curve, poor fit]",
CC(OC(=O)c1cccs1)C(=O)NC1CC1 (stereo not drawn),-1.26%,,
CC(NC(=O)c1ccco1)C(=O)N1CCN(S(=O)(=O)c2ccccc2C#N)CC1 (stereo not drawn),-0.452%,"14.6 µM [falling, partial curve]",
N#Cc1ccc(NC(=O)CN2C(=O)NC3(CCCC3)C2=O)cc1,17.1%,,
O=C(C1CCCCN1S(=O)(=O)c1ccccc1[N+](=O)[O-])N1CCCC1 (stereo not drawn),,"0.13 µM [falling, full curve, poor fit]",
O=C(Nc1ccc(-c2nc3cccnc3s2)cc1)c1ccc(Br)o1,,"0.326 µM [rising, full curve]","0.116 µM [rising, full curve, poor fit]"
Cc1ccc(C(=O)c2coc3c2C(=O)C(=O)c2ccccc2-3)cc1,-66.9%,"32.6 µM [falling, partial curve]","23.1 µM [falling, partial curve]"
N#CC1=C(S)N(c2ccccc2)C2(CCCCC2)NC1=O,78.7%,"25.9 µM [falling, partial curve, poor fit]","20.6 µM [rising, partial curve]"
CCCCC(C)n1[nH]c(=O)cc1N (stereo not drawn),,"0.651 µM [falling, partial curve]",
O=Cc1cn[nH]c1-c1ccccc1,20%,"23.1 µM [rising, single point]",
CCCCCCCN1CCC(=O)N([C@H](CO)CC(C)C)CC1,30.5%,,"3.66 µM [rising, partial curve, poor fit]"
CCN1CCN(S(=O)(=O)c2ccc(OC)cc2)CC1,-0.829%,,
O=C(CCC(=O)OCC(=O)c1ccc(Br)cc1)Nc1cccc2cccnc12,,"3.66 µM [falling, single point]",

SMILES,cell number change,AC50 [1],AC50 [2]
COc1cc(/C=C2\CCC(C3CCCC3)C2=O)cc(OC)c1OC (stereo not drawn),14.3%,"20.6 µM [falling, partial curve, poor fit]",
CN(C)c1nc(N)nc(CSc2nnnn2-c2ccccc2)n1,16.9%,,"0.13 µM [rising, full curve, poor fit]"
Cc1cc(C)n2nc(S(=O)(=O)N(C)Cc3ccccc3)nc2n1,66.6%,,
CCn1c(CNC(=O)c2cccc(C)c2)nc2ccccc21,,"0.82 µM [rising, single point]",
COc1ccc(C)cc1NC(=O)CSc1ccc(Cl)cc1,35.2%,"2.59 µM [rising, full curve, poor fit]","8.2 µM [rising, partial curve]"
CCCc1ccc(-c2cc(C(=O)N3CCN(c4ccccn4)CC3)c3ccccc3n2)cc1,14.2%,,"3.66 µM [rising, partial curve]"
CCCCCn1c(=N)n(CC(O)COc2ccccc2OC)c2ccccc21 (stereo not drawn),-2.06% and -25.2%,"2.31 µM [rising, partial curve] and 7.31 µM [falling, partial curve]",
c1ccc2c(c1)ncn2Cc1nnc2sc(-c3ccncc3)nn12,65.9%,"29.1 µM [rising, single point]","14.6 µM [rising, partial curve]"
O=C(NNC(=O)C1CC(c2cccs2)=NO1)Nc1ccccc1 (stereo not drawn),-32%,,"35.5 µM [falling, single point]"
CC1CCN(C(=O)Cn2c3ccc(F)cc3c3nc4n(c(=O)c32)CCCS4)CC1,20.1%,"0.0651 µM [falling, partial curve, poor fit]",
COc1ccc(CN(C)C(C)C(=O)Nc2ccc(S(=O)(=O)N3CCOCC3)cc2)c(OC)c1 (stereo not drawn),-17.9%,"6.51 µM [falling, single point]","6.51 µM [falling, single point]"
COc1ccc(N2Cc3cccc(C(=O)NC(C)CCc4ccco4)c3C2=O)cc1 (stereo not drawn),-0.253%,"1.16 µM [rising, single point]",
O=C(c1ccc(Cl)c(S(=O)(=O)NCc2cccnc2)c1)N1CCCC1,-6.62%,,
CCCCNC(=O)Nc1nnc(C(C)(C)C)s1,-19.4%,,
CCOC(=O)c1oc2ccccc2c1NC(=O)c1ccc(Cl)s1,,"1.03 µM [rising, full curve]","0.461 µM [rising, single point]"
CN(Cc1ccc(C(F)(F)F)cc1)C(=O)C1CCC(=O)N(C2CC2)C1 (stereo not drawn),4.62%,"29.1 µM [rising, single point]",
COc1ccc(N(C)S(=O)(=O)c2ccc3c(c2)CCC(=O)N3)cc1,-2.23%,,
CC1CCCN(C(=O)c2nn(C)c3c2CSc2ccccc2-3)C1 (stereo not drawn),-8.36%,"0.731 µM [rising, full curve]",
Cc1ccc(Cn2nc(C)c(NC(=O)c3cc(-c4ccco4)on3)c2C)cc1,-11.5%,,
O=C(Cn1ccc2ccccc2c1=O)NCCC(=O)Nc1cccnc1,18.9%,"29.1 µM [rising, single point]",
O=C(OCCCc1cc2ccccc2c(=O)o1)c1ccc(C(F)(F)F)cc1,-1.02%,"0.13 µM [rising, full curve]",

# 14 neighbouring compounds from above, quoted:
SMILES,cell number change,AC50 [1],AC50 [2]
c1ccc2c(c1)ncn2Cc1nnc2sc(-c3ccncc3)nn12,65.9%,"29.1 µM [rising, single point]","14.6 µM [rising, partial curve]"
O=C(NNC(=O)C1CC(c2cccs2)=NO1)Nc1ccccc1 (stereo not drawn),-32%,,"35.5 µM [falling, single point]"
CC1CCN(C(=O)Cn2c3ccc(F)cc3c3nc4n(c(=O)c32)CCCS4)CC1,20.1%,"0.0651 µM [falling, partial curve, poor fit]",
COc1ccc(CN(C)C(C)C(=O)Nc2ccc(S(=O)(=O)N3CCOCC3)cc2)c(OC)c1 (stereo not drawn),-17.9%,"6.51 µM [falling, single point]","6.51 µM [falling, single point]"
COc1ccc(N2Cc3cccc(C(=O)NC(C)CCc4ccco4)c3C2=O)cc1 (stereo not drawn),-0.253%,"1.16 µM [rising, single point]",
O=C(c1ccc(Cl)c(S(=O)(=O)NCc2cccnc2)c1)N1CCCC1,-6.62%,,
CCCCNC(=O)Nc1nnc(C(C)(C)C)s1,-19.4%,,
CCOC(=O)c1oc2ccccc2c1NC(=O)c1ccc(Cl)s1,,"1.03 µM [rising, full curve]","0.461 µM [rising, single point]"
CN(Cc1ccc(C(F)(F)F)cc1)C(=O)C1CCC(=O)N(C2CC2)C1 (stereo not drawn),4.62%,"29.1 µM [rising, single point]",
COc1ccc(N(C)S(=O)(=O)c2ccc3c(c2)CCC(=O)N3)cc1,-2.23%,,
CC1CCCN(C(=O)c2nn(C)c3c2CSc2ccccc2-3)C1 (stereo not drawn),-8.36%,"0.731 µM [rising, full curve]",
Cc1ccc(Cn2nc(C)c(NC(=O)c3cc(-c4ccco4)on3)c2C)cc1,-11.5%,,
O=C(Cn1ccc2ccccc2c1=O)NCCC(=O)Nc1cccnc1,18.9%,"29.1 µM [rising, single point]",
O=C(OCCCc1cc2ccccc2c(=O)o1)c1ccc(C(F)(F)F)cc1,-1.02%,"0.13 µM [rising, full curve]",

# (listing goes on)

SMILES,cell number change,AC50 [1],AC50 [2]
CCc1cc(=O)oc2cc(OCC(=O)N(CC)CC)c(Cl)cc12,20.9%,"0.00411 µM [rising, full curve, poor fit]",
O=C(CSc1nnc(-c2ccccc2O)o1)N1CCOCC1,8.87%,,
O=C(CSc1ccc(Cl)cc1)Nc1cccc(NC(=O)c2ccco2)c1,2.99%,,"6.51 µM [rising, single point]"
COC(=O)c1[nH]c2ccc(C)cc2c1NC(=O)Nc1ccccc1OC,-0.711%,"0.326 µM [rising, full curve, poor fit]",
CC(C)(C)N(CC#CCC(O)(c1ccccc1)C1CCCC1)CCO (stereo not drawn),7.64%,,
O=C(CCC(=O)c1ccc(-c2ccccc2)cc1)Nc1cccnc1,31%,,"5.17 µM [rising, partial curve, poor fit]"
CCOC(=O)c1cc(C(=O)OCC)c2cccc(C)n2c1=O,-12.7%,"0.184 µM [falling, full curve, poor fit]",
CCc1nc(Nc2ccc3c(c2)OCO3)c2oc3ccccc3c2n1,-20.9%,"23.1 µM [falling, single point]",
COc1ccc(OCCC(=O)OCC(=O)Nc2cccc(S(=O)(=O)N3CCOCC3)c2)cc1,-23.2%,"0.13 µM [falling, full curve, poor fit]","0.13 µM [falling, full curve, poor fit]"
COc1ccc(CCNC(=O)CCC(=O)c2cccs2)cc1OC,-20.7%,"3.26 µM [falling, partial curve]","3.26 µM [falling, single point]"
N#Cc1nc(COc2ccc(Br)cc2)oc1NCCCn1ccnc1,,,"0.411 µM [rising, partial curve, poor fit]"
CCCCn1c(SCc2cc(=O)n3ccsc3n2)nc2cc(C(=O)OC)ccc2c1=O,-3.88%,"6.51 µM [rising, single point]",
Cn1c(Oc2ccc(F)cc2)c(C=O)c2ccccc21,20.9%,"0.0517 µM [falling, full curve, poor fit]",
COC(=O)c1c(NC(=O)c2ccccc2[N+](=O)[O-])sc2c1CC(C)(C)NC2(C)C,-5.16%,"0.0517 µM [rising, full curve, poor fit]",
CCOC(=O)c1[nH]c2ccc(Cl)cc2c1-c1ccccc1,-48.3%,"32.6 µM [falling, single point]","29.1 µM [falling, partial curve]"
O=C(O)c1n[nH]c2c1CCCCC2,-4.34%,"0.0259 µM [falling, full curve, poor fit]",
COc1cccc(C(=O)N2CCN=C2SC)c1,-1.03%,,"0.731 µM [rising, partial curve, poor fit]"
O=C(c1ccc(OC2CCN(Cc3cccc(OCCO)c3)CC2)cc1)N1CCCC1,31.3%,"29.1 µM [rising, single point]","32.6 µM [rising, single point]"
CCOC(=O)c1ccc(NC(=O)CSc2nc3ncccc3[nH]2)cc1,-44.5%,"14.6 µM [falling, partial curve]","29.1 µM [falling, single point]"
NC(=NCCc1c[nH]c2ccccc12)NS(=O)(=O)c1ccc(F)cc1,16.6%,,
Cc1cc(C)n(C(=O)c2ccc(NC(=O)C3CC3)cc2)n1,63.7%,"0.58 µM [rising, single point]","20.6 µM [rising, single point]"
